These results are taken from paper PMC12802923.

Results are given in words; binding and its absence hold for the method and conditions named. Binding seen in cells or lysates may run through a third protein. Some entries that bind do so weakly or less than the wild type. Tags and fused reporters may be left off the sequences shown.

In assay [1] the target is T1, Polo-like kinase Cdc5, 3HA-tagged (GAL-3HACDC5) (S. cerevisiae) (UniProt P32562).
T1 sequence: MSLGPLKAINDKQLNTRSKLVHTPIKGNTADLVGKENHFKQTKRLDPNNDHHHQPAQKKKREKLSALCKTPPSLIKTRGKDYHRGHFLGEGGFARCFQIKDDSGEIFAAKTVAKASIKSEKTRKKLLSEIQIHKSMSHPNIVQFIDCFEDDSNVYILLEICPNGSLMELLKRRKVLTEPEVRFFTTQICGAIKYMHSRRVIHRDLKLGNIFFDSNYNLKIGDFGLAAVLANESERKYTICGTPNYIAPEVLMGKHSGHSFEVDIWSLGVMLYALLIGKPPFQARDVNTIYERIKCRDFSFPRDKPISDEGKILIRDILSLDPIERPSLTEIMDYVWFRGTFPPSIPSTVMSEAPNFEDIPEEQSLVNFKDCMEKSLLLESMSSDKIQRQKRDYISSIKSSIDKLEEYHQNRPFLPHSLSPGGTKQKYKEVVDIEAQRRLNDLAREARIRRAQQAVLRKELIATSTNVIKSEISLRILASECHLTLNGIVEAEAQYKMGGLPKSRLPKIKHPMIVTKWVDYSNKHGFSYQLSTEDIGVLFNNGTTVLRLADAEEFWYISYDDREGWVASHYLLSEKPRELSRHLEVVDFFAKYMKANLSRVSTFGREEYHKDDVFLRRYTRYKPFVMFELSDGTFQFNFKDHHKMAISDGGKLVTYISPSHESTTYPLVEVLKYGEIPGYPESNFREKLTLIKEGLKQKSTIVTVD
The assay is described as follows: co-IP; Cdc5-HA immunoprecipitated with anti-HA magnetic beads (2 h, 4°C, NP-40 buffer) from cells arrested in metaphase (cdc20 arrest, CDC20-AID) after galactose induction of Cdc5; Top2-9PK analysed in the precipitate.

Assay [2] addresses T2, Cdk-counteracting phosphatase Cdc14, 6HA-tagged (CDC14-6HA) (S. cerevisiae) (UniProt Q00684).
T2 sequence: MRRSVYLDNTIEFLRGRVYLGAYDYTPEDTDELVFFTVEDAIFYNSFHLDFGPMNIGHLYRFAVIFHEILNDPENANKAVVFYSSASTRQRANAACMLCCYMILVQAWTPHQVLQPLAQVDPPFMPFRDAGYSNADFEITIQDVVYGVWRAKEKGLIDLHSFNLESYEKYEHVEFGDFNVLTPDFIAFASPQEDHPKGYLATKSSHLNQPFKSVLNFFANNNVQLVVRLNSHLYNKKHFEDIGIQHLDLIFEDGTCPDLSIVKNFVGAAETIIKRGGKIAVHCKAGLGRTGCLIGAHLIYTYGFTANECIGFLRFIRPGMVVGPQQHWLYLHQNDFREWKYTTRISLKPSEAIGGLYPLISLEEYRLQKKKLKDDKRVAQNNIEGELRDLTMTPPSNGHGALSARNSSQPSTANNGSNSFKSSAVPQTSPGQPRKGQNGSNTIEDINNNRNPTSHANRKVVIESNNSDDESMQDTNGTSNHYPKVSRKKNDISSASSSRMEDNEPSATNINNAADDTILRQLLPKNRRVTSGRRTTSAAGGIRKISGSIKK
The assay is described as follows: co-IP; Cdc14-HA immunoprecipitated with anti-HA magnetic beads (2 h, 4°C, NP-40 buffer) from cells at the metaphase arrest (cdc20 arrest, CDC20-AID); Top2-9PK analysed in the precipitate.

The target of assay [3] is T2, Cdk-counteracting phosphatase Cdc14, 6HA-tagged (CDC14-6HA) (S. cerevisiae). The assay is described as follows: co-IP; Cdc14-HA immunoprecipitated with anti-HA magnetic beads (2 h, 4°C, NP-40 buffer) from cells 45 min after release from the metaphase block, when 80% cells are in early anaphase; Top2-9PK analysed in the precipitate.

B1: Topoisomerase II (Top2), TOP2-9PK fusion (enzyme, UniProt P06786 1-1428)
chain: MSTEPVSASDKYQKISQLEHILKRPDTYIGSVETQEQLQWIYDEETDCMIEKNVTIVPGLFKIFDEILVNAADNKVRDPSMKRIDVNIHAEEHTIEVKNDGKGIPIEIHNKENIYIPEMIFGHLLTSSNYDDDEKKVTGGRNGYGAKLCNIFSTEFILETADLNVGQKYVQKWENNMSICHPPKITSYKKGPSYTKVTFKPDLTRFGMKELDNDILGVMRRRVYDINGSVRDINVYLNGKSLKIRNFKNYVELYLKSLEKKRQLDNGEDGAAKSDIPTILYERINNRWEVAFAVSDISFQQISFVNSIATTMGGTHVNYITDQIVKKISEILKKKKKKSVKSFQIKNNMFIFINCLIENPAFTSQTKEQLTTRVKDFGSRCEIPLEYINKIMKTDLATRMFEIADANEENALKKSDGTRKSRITNYPKLEDANKAGTKEGYKCTLVLTEGDSALSLAVAGLAVVGRDYYGCYPLRGKMLNVREASADQILKNAEIQAIKKIMGLQHRKKYEDTKSLRYGHLMIMTDQDHDGSHIKGLIINFLESSFPGLLDIQGFLLEFITPIIKVSITKPTKNTIAFYNMPDYEKWREEESHKFTWKQKYYKGLGTSLAQEVREYFSNLDRHLKIFHSLQGNDKDYIDLAFSKKKADDRKEWLRQYEPGTVLDPTLKEIPISDFINKELILFSLADNIRSIPNVLDGFKPGQRKVLYGCFKKNLKSELKVAQLAPYVSECTAYHHGEQSLAQTIIGLAQNFVGSNNIYLLLPNGAFGTRATGGKDAAAARYIYTELNKLTRKIFHPADDPLYKYIQEDEKTVEPEWYLPILPMILVNGAEGIGTGWSTYIPPFNPLEIIKNIRHLMNDEELEQMHPWFRGWTGTIEEIEPLRYRMYGRIEQIGDNVLEITELPARTWTSTIKEYLLLGLSGNDKIKPWIKDMEEQHDDNIKFIITLSPEEMAKTRKIGFYERFKLISPISLMNMVAFDPHGKIKKYNSVNEILSEFYYVRLEYYQKRKDHMSERLQWEVEKYSFQVKFIKMIIEKELTVTNKPRNAIIQELENLGFPRFNKEGKPYYGSPNDEIAEQINDVKGATSDEEDEESSHEDTENVINGPEELYGTYEYLLGMRIWSLTKERYQKLLKQKQEKETELENLLKLSAKDIWNTDLKAFEVGYQEFLQRDAEARGGNVPNKGSKTKGKGKRKLVDDEDYDPSKKNKKSTARKGKKIKLEDKNFERILLEQKLVTKSKAPTKIKKEKTPSVSETKTEEEENAPSSTSSSSIFDIKKEDKDEGELSKISNKFKKISTIFDKMGSTSATSKENTPEQDDVATKKNQTTAKKTAVKPKLAKKPVRKQQKVVELSGESDLEILDSYTDREDSNKDEDDAIPQRSRRQRSSRAASVPKKSYVETLELSDDSFIEDDEEENQGSDVSFNEED
On to B1, for which the binding entry is given as “binds” in assay [1], “binds weakly” in assay [2] and “binds” in assay [3].
